Assay results published in US5430032A, “Benzopyrido piperidylidene compounds, compositions, methods of manufacture and methods of use” (Schering Corporation, priority 1994, dated 1995).
Some entries share one result that the patent states for a list of compounds.

Experiments:
Histamine = assay: Histamine-induced bronchospasm in guinea pigs (in vivo, oral); set-up: species or system guinea pig; details: 3-10 mg/kg, in words
PAF = assay: PAF-induced bronchospasm in guinea pigs (in vivo, oral); set-up: species or system guinea pig; details: 1 mg/kg orally, in words

Structure (SMILES)	effect on the response to histamine (Histamine)	activity against the PAF response (PAF)
O=C(c1cc[n+]([O-])cc1)N1CCN(C2c3ccc(Cl)cc3SCc3cccnc32)CC1 (stereo not drawn) [Compound 5]	no effect on the response to histamine	active against the PAF response
O=C(c1cc[n+]([O-])cc1)N1CCN(C2c3ccc(Cl)cc3OCc3cccnc32)CC1 (stereo not drawn) [Compound 4]	no effect on the response to histamine	active against the PAF response
O=C(c1cc[n+]([O-])cc1)N1CCC(=C2c3ccc(Cl)cc3SCc3cccnc32)CC1 [Compound 3]	no effect on the response to histamine	active against the PAF response
